Data as given in PubChem BioAssay AID1259254 (NCATS, 2017).
Test: 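Finding genes that stop cells copying their DNA twice in one cycle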 (primary screen). Cell system: human HCT116 colorectal cancer cells. Reagents: single siRNA against human genes. Time to read-out: 3 days. Measurement: 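Nuclei stained with Hoechst and imaged; cell-cycle phase assigned by DNA content; G2 share scaled per plate, non-targeting siRNA 0%, GMNN siRNA 100%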. Reading the numbers: G2 robust z-score: higher = more G2 cells, more excess DNA replication. Hit rule: 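An siRNA counts as active if its G2 robust z-score lies at least 5 MADs above the screen median; here such calls match roughly 38% of GMNN control or more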.
Here is one part, drawn at random, of about 59,000 deposited reagents. About 1,550 of them (2.6%) were called active. 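G2 share is only a proxy for re-replication; each gene was hit by three separate siRNAs, and active genes were retested.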 Reagents against one gene are numbered here. Not all columns of the deposit are shown. Not stated in the record: the amount of reagent.

USP6NL (USP6 N-terminal like) #1 → G2 robust z-score: 0.844; outcome: inactive
USP6NL (USP6 N-terminal like) #2 → G2 robust z-score: -0.483; outcome: inactive
USP6NL (USP6 N-terminal like) #3 → G2 robust z-score: -0.58; outcome: inactive
KLF5 (KLF transcription factor 5) #1 → G2 robust z-score: -0.471; outcome: inactive
KLF5 (KLF transcription factor 5) #2 → G2 robust z-score: -0.646; outcome: inactive
KLF5 (KLF transcription factor 5) #3 → G2 robust z-score: -0.481; outcome: inactive
UQCRB (ubiquinol-cytochrome c reductase binding protein) #1 → G2 robust z-score: 2.16; outcome: inactive
UQCRB (ubiquinol-cytochrome c reductase binding protein) #2 → G2 robust z-score: -1.24; outcome: inactive
UQCRB (ubiquinol-cytochrome c reductase binding protein) #3 → G2 robust z-score: 1.26; outcome: inactive
C19orf44 (chromosome 19 open reading frame 44) #1 → G2 robust z-score: -0.48; outcome: inactive
C19orf44 (chromosome 19 open reading frame 44) #2 → G2 robust z-score: -1.23; outcome: inactive
C19orf44 (chromosome 19 open reading frame 44) #3 → G2 robust z-score: -0.832; outcome: inactive
TRAPPC13P1 (trafficking protein particle complex 13 pseudogene 1) #1 → G2 robust z-score: 3.3; outcome: inactive
TRAPPC13P1 (trafficking protein particle complex 13 pseudogene 1) #2 → G2 robust z-score: 0.0366; outcome: inactive
TRAPPC13P1 (trafficking protein particle complex 13 pseudogene 1) #3 → G2 robust z-score: 3.02; outcome: inactive
ACOT12 (acyl-CoA thioesterase 12) #1 → G2 robust z-score: -0.316; outcome: inactive
ACOT12 (acyl-CoA thioesterase 12) #2 → G2 robust z-score: 2.82; outcome: inactive
ACOT12 (acyl-CoA thioesterase 12) #3 → G2 robust z-score: -0.282; outcome: inactive
NRK (Nik related kinase) #1 → G2 robust z-score: -0.101; outcome: inactive
NRK (Nik related kinase) #2 → G2 robust z-score: -0.72; outcome: inactive
NRK (Nik related kinase) #3 → G2 robust z-score: -0.358; outcome: inactive
SMIM11 (small integral membrane protein 11) #1 → G2 robust z-score: 0.808; outcome: inactive
SMIM11 (small integral membrane protein 11) #2 → G2 robust z-score: -0.364; outcome: inactive
SMIM11 (small integral membrane protein 11) #3 → G2 robust z-score: -0.794; outcome: inactive
